Assay results as given in patent US12384788B2, “1,4-dihydrobenzo[d]pyrazolo[3,4-f][1,3]diazepine derivatives and related compounds as LRRK2, NUAK1 and/or TYK2 kinase modulators for the treatment of e.g. autoimmune disease” (Origenis GMBH, priority 2019, dated 2025).
Some results were stated once for a whole list of compounds, not compound by compound.

The chains behind the UniProt entries cited, without tags or fusion partners. Where a name states a change or a piece, a line headed by the entry shows the natural chain unless it says otherwise.
UniProt Q5S007: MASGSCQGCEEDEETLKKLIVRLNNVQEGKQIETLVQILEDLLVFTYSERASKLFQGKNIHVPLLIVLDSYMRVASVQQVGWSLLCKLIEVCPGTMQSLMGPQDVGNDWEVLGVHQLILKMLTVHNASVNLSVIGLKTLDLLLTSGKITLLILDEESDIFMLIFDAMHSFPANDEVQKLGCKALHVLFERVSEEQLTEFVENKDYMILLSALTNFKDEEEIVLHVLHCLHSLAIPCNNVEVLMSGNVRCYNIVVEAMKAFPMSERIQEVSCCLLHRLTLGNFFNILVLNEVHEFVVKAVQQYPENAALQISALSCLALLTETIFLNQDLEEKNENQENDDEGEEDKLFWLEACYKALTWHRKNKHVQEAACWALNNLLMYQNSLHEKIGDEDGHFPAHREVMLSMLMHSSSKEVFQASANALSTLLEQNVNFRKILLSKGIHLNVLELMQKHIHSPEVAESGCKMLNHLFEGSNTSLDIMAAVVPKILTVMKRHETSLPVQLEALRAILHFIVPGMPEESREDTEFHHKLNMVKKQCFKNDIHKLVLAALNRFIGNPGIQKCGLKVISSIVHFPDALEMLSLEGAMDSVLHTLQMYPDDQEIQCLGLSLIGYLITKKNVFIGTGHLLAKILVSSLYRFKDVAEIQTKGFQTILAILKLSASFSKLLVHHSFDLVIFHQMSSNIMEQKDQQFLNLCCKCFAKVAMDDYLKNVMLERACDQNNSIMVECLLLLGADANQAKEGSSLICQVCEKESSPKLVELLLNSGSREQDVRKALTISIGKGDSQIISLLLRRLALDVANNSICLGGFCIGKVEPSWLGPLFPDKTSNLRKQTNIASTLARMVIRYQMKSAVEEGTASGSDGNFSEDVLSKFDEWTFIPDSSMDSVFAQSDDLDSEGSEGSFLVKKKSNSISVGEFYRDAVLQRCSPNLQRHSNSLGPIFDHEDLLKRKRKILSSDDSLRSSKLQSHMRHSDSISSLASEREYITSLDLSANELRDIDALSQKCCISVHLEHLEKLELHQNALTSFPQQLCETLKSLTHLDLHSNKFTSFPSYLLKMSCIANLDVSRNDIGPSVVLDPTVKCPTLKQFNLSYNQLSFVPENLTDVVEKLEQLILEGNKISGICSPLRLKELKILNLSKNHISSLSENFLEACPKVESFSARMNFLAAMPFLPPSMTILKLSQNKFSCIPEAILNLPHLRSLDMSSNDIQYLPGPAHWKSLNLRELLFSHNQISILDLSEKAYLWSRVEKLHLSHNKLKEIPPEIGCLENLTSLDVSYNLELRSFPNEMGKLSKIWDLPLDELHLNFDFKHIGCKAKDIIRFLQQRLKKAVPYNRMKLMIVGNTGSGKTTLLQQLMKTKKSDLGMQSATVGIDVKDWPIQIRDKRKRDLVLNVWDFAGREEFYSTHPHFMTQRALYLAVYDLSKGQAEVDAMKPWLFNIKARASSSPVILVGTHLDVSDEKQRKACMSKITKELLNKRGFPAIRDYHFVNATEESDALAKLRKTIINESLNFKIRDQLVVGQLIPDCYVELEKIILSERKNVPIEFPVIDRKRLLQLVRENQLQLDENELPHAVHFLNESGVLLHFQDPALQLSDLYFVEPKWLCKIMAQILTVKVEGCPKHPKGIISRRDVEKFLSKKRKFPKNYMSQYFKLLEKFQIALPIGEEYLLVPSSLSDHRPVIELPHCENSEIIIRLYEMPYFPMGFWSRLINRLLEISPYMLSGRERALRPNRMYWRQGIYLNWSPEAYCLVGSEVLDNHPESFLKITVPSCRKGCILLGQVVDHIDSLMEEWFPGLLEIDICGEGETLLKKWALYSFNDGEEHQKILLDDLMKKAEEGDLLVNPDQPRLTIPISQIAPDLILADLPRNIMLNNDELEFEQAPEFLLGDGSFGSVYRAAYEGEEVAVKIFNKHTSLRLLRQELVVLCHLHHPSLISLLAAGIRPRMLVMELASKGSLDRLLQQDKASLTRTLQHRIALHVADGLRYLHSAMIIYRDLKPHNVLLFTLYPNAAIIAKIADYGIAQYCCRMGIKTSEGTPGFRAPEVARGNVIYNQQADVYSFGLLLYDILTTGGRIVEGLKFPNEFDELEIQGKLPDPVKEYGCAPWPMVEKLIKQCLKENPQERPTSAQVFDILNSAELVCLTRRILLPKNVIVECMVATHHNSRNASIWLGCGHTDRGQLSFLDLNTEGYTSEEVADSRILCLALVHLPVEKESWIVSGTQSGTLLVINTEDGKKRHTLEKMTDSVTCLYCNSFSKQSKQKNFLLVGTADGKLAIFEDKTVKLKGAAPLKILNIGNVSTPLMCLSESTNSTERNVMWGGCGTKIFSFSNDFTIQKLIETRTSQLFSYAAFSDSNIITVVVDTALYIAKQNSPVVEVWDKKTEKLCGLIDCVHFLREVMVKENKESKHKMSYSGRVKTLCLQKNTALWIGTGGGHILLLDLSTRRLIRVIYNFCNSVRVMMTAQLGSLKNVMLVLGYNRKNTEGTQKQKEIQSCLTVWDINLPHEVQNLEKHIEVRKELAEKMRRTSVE

Molecular target: T1, LRRK2 (Wt) and LRRK2 (G2019) (Homo sapiens, UniProt Q5S007)
T1 construct: fused on or other part: GST tag, inferred from the Eu-Anti-GST antibody used for detection
Assay: TR-FRET LanthaScreen Eu Kinase Binding Assay, LRRK2
Conditions: wt human LRRK2 or G2019S human LRRK2, catalytic site; one bin printed for both; read-out: IC50, inhibitory activity toward LRRK2 (Wt) and LRRK2 (G2019)

`CN(C)C(=O)Oc1ccc2c(c1)-c1[nH]ncc1NC(c1c(F)cccc1F)=N2` [Compound 136, 5-(2,6-difluorophenyl)-1,4-dihydrobenzo[d]pyrazolo[3,4-f][1,3]diazepin-9-yl dimethylcarbamate] was tested, and the IC50 was under 10 nM.
